Differences between knockout arms are mostly noise.
Tested on: BT-20
Test: relative cell number vs DMSO control (72 h) (% of DMSO); higher = less growth inhibition (more cells)
Experimental: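 QMAP-Seq: a pool of 5 breast cancer cell lines (ZR-75-1, SKBR3, HCC-38, MDA-MB-231, BT-20), each carrying 12 doxycycline-inducible Cas9 sgRNA perturbations (11 knockouts plus non-targeting sgNT), was treated with compounds for 72 h at four 10-fold doses (10 nM-10 uM or 1 nM-1 uM range). Barcodes were amplified and sequenced, and cell number was interpolated from 293T spike-in standard curves. The result is expressed as % of the median of DMSO wells. Two biological replicates.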

COc1nc(N)nc2c1ncn2[C@@H]1O[C@H](CO)[C@@H](O)[C@@H]1O [Nelarabine]
Conditions | relative cell number
sgRNA knockout: sgATF3, 10 nM | 89.7
sgRNA knockout: sgATF3, 100 nM | 99.7
sgRNA knockout: sgATF3, 1000 nM | 92.2
sgRNA knockout: sgATF3, 10000 nM | 105
sgRNA knockout: sgATF4, 10 nM | 112
sgRNA knockout: sgATF4, 100 nM | 107.97
sgRNA knockout: sgATF4, 1000 nM | 95.4
sgRNA knockout: sgATF4, 10000 nM | 93
sgRNA knockout: sgATF6, 10 nM | 90.5
sgRNA knockout: sgATF6, 100 nM | 90.4
sgRNA knockout: sgATF6, 1000 nM | 105
sgRNA knockout: sgATF6, 10000 nM | 66.1
sgRNA knockout: sgATG7, 10 nM | 99.9
sgRNA knockout: sgATG7, 100 nM | 87.9
sgRNA knockout: sgATG7, 1000 nM | 97.2
sgRNA knockout: sgATG7, 10000 nM | 92.6
sgRNA knockout: sgERN1, 10 nM | 85.8
sgRNA knockout: sgERN1, 100 nM | 102
sgRNA knockout: sgERN1, 1000 nM | 107
sgRNA knockout: sgERN1, 10000 nM | 102
sgRNA knockout: sgHSF1, 10 nM | 101
sgRNA knockout: sgHSF1, 100 nM | 99.6
sgRNA knockout: sgHSF1, 1000 nM | 79.7
sgRNA knockout: sgHSF1, 10000 nM | 97.9
sgRNA knockout: sgHSF2, 10 nM | 107
sgRNA knockout: sgHSF2, 100 nM | 99.6
sgRNA knockout: sgHSF2, 1000 nM | 91.14
sgRNA knockout: sgHSF2, 10000 nM | 96.7
sgRNA knockout: sgKEAP1, 10 nM | 99.3
sgRNA knockout: sgKEAP1, 100 nM | 95.4
sgRNA knockout: sgKEAP1, 1000 nM | 89.2
sgRNA knockout: sgKEAP1, 10000 nM | 87.1
sgRNA knockout: sgNFE2L2, 10 nM | 92.9
sgRNA knockout: sgNFE2L2, 100 nM | 119
sgRNA knockout: sgNFE2L2, 1000 nM | 100
sgRNA knockout: sgNFE2L2, 10000 nM | 96.4
sgRNA knockout: sgSLC35F2, 10 nM | 103
sgRNA knockout: sgSLC35F2, 100 nM | 94.9
sgRNA knockout: sgSLC35F2, 1000 nM | 99
sgRNA knockout: sgSLC35F2, 10000 nM | 115
sgRNA knockout: sgXBP1, 10 nM | 93.5
sgRNA knockout: sgXBP1, 100 nM | 91
sgRNA knockout: sgXBP1, 1000 nM | 99
sgRNA knockout: sgXBP1, 10000 nM | 88.2

COc1cc2nc(N3CCCN(C)CC3)nc(NC3CCN(Cc4ccccc4)CC3)c2cc1OC
Conditions | relative cell number
sgRNA knockout: sgATF3, 10 nM | 108
sgRNA knockout: sgATF3, 100 nM | 90.1
sgRNA knockout: sgATF3, 1000 nM | 72.2
sgRNA knockout: sgATF3, 10000 nM | 7.18
sgRNA knockout: sgATF4, 10 nM | 99.8
sgRNA knockout: sgATF4, 100 nM | 99.1
sgRNA knockout: sgATF4, 1000 nM | 104
sgRNA knockout: sgATF4, 10000 nM | 8.88
sgRNA knockout: sgATF6, 10 nM | 101
sgRNA knockout: sgATF6, 100 nM | 87.1
sgRNA knockout: sgATF6, 1000 nM | 82.3
sgRNA knockout: sgATF6, 10000 nM | 4.61
sgRNA knockout: sgATG7, 10 nM | 105
sgRNA knockout: sgATG7, 100 nM | 99.4
sgRNA knockout: sgATG7, 1000 nM | 83.5
sgRNA knockout: sgATG7, 10000 nM | 8.35
sgRNA knockout: sgERN1, 10 nM | 94.7
sgRNA knockout: sgERN1, 100 nM | 83
sgRNA knockout: sgERN1, 1000 nM | 82.9
sgRNA knockout: sgERN1, 10000 nM | 5.77
sgRNA knockout: sgHSF1, 10 nM | 102
sgRNA knockout: sgHSF1, 100 nM | 100.9
sgRNA knockout: sgHSF1, 1000 nM | 92
sgRNA knockout: sgHSF1, 10000 nM | 9.4
sgRNA knockout: sgHSF2, 10 nM | 81.5
sgRNA knockout: sgHSF2, 100 nM | 78
sgRNA knockout: sgHSF2, 1000 nM | 89.1
sgRNA knockout: sgHSF2, 10000 nM | 5.95
sgRNA knockout: sgKEAP1, 10 nM | 109
sgRNA knockout: sgKEAP1, 100 nM | 88.7
sgRNA knockout: sgKEAP1, 1000 nM | 92.6
sgRNA knockout: sgKEAP1, 10000 nM | 9.75
sgRNA knockout: sgNFE2L2, 10 nM | 88.6
sgRNA knockout: sgNFE2L2, 100 nM | 112
sgRNA knockout: sgNFE2L2, 1000 nM | 102
sgRNA knockout: sgNFE2L2, 10000 nM | 8.62
sgRNA knockout: sgSLC35F2, 10 nM | 91.3
sgRNA knockout: sgSLC35F2, 100 nM | 98.2
sgRNA knockout: sgSLC35F2, 1000 nM | 82.1
sgRNA knockout: sgSLC35F2, 10000 nM | 11.6
sgRNA knockout: sgXBP1, 10 nM | 99
sgRNA knockout: sgXBP1, 100 nM | 100.8
sgRNA knockout: sgXBP1, 1000 nM | 90.5
sgRNA knockout: sgXBP1, 10000 nM | 10.6

C=C(c1ccc(C(=O)O)cc1)c1cc2c(cc1C)C(C)(C)CCC2(C)C [Bexarotene]
Conditions | relative cell number
sgRNA knockout: sgATF3, 10 nM | 91.2
sgRNA knockout: sgATF3, 100 nM | 102
sgRNA knockout: sgATF3, 1000 nM | 106.8
sgRNA knockout: sgATF3, 10000 nM | 101.7
sgRNA knockout: sgATF4, 10 nM | 119
sgRNA knockout: sgATF4, 100 nM | 106
sgRNA knockout: sgATF4, 1000 nM | 114
sgRNA knockout: sgATF4, 10000 nM | 118
sgRNA knockout: sgATF6, 10 nM | 85.7
sgRNA knockout: sgATF6, 100 nM | 127.1
sgRNA knockout: sgATF6, 1000 nM | 114
sgRNA knockout: sgATF6, 10000 nM | 124
sgRNA knockout: sgATG7, 10 nM | 95.1
sgRNA knockout: sgATG7, 100 nM | 118
sgRNA knockout: sgATG7, 1000 nM | 118
sgRNA knockout: sgATG7, 10000 nM | 110
sgRNA knockout: sgERN1, 10 nM | 102
sgRNA knockout: sgERN1, 100 nM | 107
sgRNA knockout: sgERN1, 1000 nM | 120
sgRNA knockout: sgERN1, 10000 nM | 137
sgRNA knockout: sgHSF1, 10 nM | 92.4
sgRNA knockout: sgHSF1, 100 nM | 98.2
sgRNA knockout: sgHSF1, 1000 nM | 120
sgRNA knockout: sgHSF1, 10000 nM | 125
sgRNA knockout: sgHSF2, 10 nM | 98.2
sgRNA knockout: sgHSF2, 100 nM | 101
sgRNA knockout: sgHSF2, 1000 nM | 110
sgRNA knockout: sgHSF2, 10000 nM | 126
sgRNA knockout: sgKEAP1, 10 nM | 103
sgRNA knockout: sgKEAP1, 100 nM | 100.6
sgRNA knockout: sgKEAP1, 1000 nM | 105
sgRNA knockout: sgKEAP1, 10000 nM | 122
sgRNA knockout: sgNFE2L2, 10 nM | 108
sgRNA knockout: sgNFE2L2, 100 nM | 105
sgRNA knockout: sgNFE2L2, 1000 nM | 93.8
sgRNA knockout: sgNFE2L2, 10000 nM | 98.483
sgRNA knockout: sgSLC35F2, 10 nM | 109
sgRNA knockout: sgSLC35F2, 100 nM | 120
sgRNA knockout: sgSLC35F2, 1000 nM | 106
sgRNA knockout: sgSLC35F2, 10000 nM | 130
sgRNA knockout: sgXBP1, 10 nM | 101
sgRNA knockout: sgXBP1, 100 nM | 97.5
sgRNA knockout: sgXBP1, 1000 nM | 103
sgRNA knockout: sgXBP1, 10000 nM | 121
